Our source for the binding values is PMC6521040.

Amino acid sequences for entries named in this document (tags omitted).
UniProt P0A9A6: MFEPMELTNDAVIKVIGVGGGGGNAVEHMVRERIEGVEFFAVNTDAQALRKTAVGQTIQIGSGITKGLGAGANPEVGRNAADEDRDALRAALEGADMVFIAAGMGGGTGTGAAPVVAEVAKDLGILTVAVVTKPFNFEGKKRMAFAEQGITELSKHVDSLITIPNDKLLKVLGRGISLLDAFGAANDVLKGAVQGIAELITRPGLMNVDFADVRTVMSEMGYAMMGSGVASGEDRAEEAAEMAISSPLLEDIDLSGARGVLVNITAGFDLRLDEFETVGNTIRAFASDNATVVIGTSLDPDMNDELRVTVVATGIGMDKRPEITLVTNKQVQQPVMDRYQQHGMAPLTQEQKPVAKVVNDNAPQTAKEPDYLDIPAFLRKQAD

The target of this assay is T1, CbtA (Ec), CbtA toxin from E. coli strain BW25113 (E. coli strain BW25113) (UniProt P64524).
T1 sequence: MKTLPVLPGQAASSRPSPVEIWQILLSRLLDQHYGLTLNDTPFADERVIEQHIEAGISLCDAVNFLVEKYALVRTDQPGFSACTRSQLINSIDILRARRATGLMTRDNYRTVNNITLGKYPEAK
In words: two-hybrid; GAL4 DNA binding domain bait and activation domain prey fusions co-transformed into S. cerevisiae strain Y2H gold; growth on SD/-Leu/-Trp and SD/-Leu/-Trp/-His plates, 30 °C, 3 days.

No constants are given. Whether binding was seen depends on the method and setting. Some entries that bind do so weakly or less than the wild type.

In the case of “FtsZ (Ec), cytoskeletal protein FtsZ from E. coli strain BW25113 (from UniProt P0A9A6 1-383)”, the binding result is listed as “binds”.
